# Source: paper PMC7819943, “Rice protein-binding microarrays: a tool to detect cis-acting elements near promoter regions in rice”
# Some of the results follow.
# Target: T1, OsSMF1 (Oryza sativa, UniProt Q6ZLB0 1-436)
# T1 sequence: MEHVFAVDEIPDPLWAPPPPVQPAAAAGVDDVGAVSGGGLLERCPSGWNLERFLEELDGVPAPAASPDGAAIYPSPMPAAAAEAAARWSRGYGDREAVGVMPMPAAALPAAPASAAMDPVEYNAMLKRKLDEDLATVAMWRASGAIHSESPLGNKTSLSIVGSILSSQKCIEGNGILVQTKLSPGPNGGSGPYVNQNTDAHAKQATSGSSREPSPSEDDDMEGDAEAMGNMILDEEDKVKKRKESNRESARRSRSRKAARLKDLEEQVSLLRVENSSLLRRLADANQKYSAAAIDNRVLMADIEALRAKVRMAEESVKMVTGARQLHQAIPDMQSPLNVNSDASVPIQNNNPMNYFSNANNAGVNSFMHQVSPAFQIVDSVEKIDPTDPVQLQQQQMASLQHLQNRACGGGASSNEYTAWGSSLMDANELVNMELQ
# Assay: protein-binding microarray (RPBM); PBS, 2% BSA, 51.3 ng/ul salmon testes DNA, 50 uM zinc acetate, 200 nM TF, 25 C, 1 h; high values mean tight binding
# Conditions: protein: recombinant; tags: N-terminal polyhistidine and DsRed monomer fusion (pET32a); chain copies: 2; label: CyDye5-dUTP incorporated in the synthesized complementary strand; 3' TTTTT single-stranded linker to array surface; dsDNA, one strand shown
# In short: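 The binding signal is fluorescence intensity per feature, in arbitrary units, read on an Axon 4000B scanner. Polyhistidine- and DsRed-tagged transcription factors (N-terminal fusions) from E. coli BL21-CodonPlus were purified on Ni–NTA and applied at 200 nM for 1 h at 25 °C to a double-stranded, BSA-blocked custom Agilent array in buffer with 50 µM zinc acetate.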
row,Sequence,binding signal
1,ACAGCCAAGTGGGATGACTGGACGGATACTCATCAACTCGCGGAGTCACCTAGTGCAG,5510 fluorescence intensity (a.u.)
2,ATCACCACCCAAACGGCACGATCCGGATCGTTTACACTGCCGGAGTCACCTAGTGCAG,20600 fluorescence intensity (a.u.)
3,GGAAGTTGGTGTACCGTTGCTCTGACACGTGGGCCCCAACCGGAGTCACCTAGTGCAG,14800 fluorescence intensity (a.u.)
4,TACCCCGCGAGACAATGACACATCATCTCACGAGAAGTTACGGAGTCACCTAGTGCAG,4120 fluorescence intensity (a.u.)
5,TCTTCAGATAGTCTTGCAGATCTTGACTACACATCAGCTCCGGAGTCACCTAGTGCAG,3200 fluorescence intensity (a.u.)
6,GTTGTTATAGTCGCTATATGAGCGAAGTTATGACGTGACACGGAGTCACCTAGTGCAG,6800 fluorescence intensity (a.u.)
7,ACGATCAAATTTAGACATGGAAACTCGTGACTGTGCTTATCGGAGTCACCTAGTGCAG,5030 fluorescence intensity (a.u.)
8,TCACATGAATGATCATTAGCATGTCATTATCATGATTATGCGGAGTCACCTAGTGCAG,3430 fluorescence intensity (a.u.)
9,TCATGATGAATCGGGGTGGTGGAGGTTTGCTTGTTATGGTCGGAGTCACCTAGTGCAG,3170 fluorescence intensity (a.u.)
10,TAAGACGTTTCGCTTATAATTAATAATATGTATAAGAGGGCGGAGTCACCTAGTGCAG,5320 fluorescence intensity (a.u.)
11,GAAAGCATTCGTACACCGGGAGAAAGTGACCCATAGACGACGGAGTCACCTAGTGCAG,5560 fluorescence intensity (a.u.)
12,TGACTGGCGCGGAGTCACGACGAGTCCGGCCAGTCCACCACGGAGTCACCTAGTGCAG,3550 fluorescence intensity (a.u.)
13,GTAGTAGTACCGTTACTACTATATGTTCTCTGTTACTGCACGGAGTCACCTAGTGCAG,3390 fluorescence intensity (a.u.)
14,TGAAGAATGTTGTAAATTAATGGATTGTGTATATCTCACCCGGAGTCACCTAGTGCAG,19400 fluorescence intensity (a.u.)
15,AGAGTAACAAGCTGAAACTGCTGTGGCCACATCACATTCTCGGAGTCACCTAGTGCAG,4370 fluorescence intensity (a.u.)
16,TTGAGTGTAGGCAACTGATGATCTGTCAGAACGTAGTCTCCGGAGTCACCTAGTGCAG,4350 fluorescence intensity (a.u.)
17,ACGCCGACGAGATCGCCGCCGTCCGCGCGGTTCTTGGCGCCGGAGTCACCTAGTGCAG,3310 fluorescence intensity (a.u.)
18,GAGGGTTCTTGATGCGTGACCTGATGCGGGAGGCGTATTGCGGAGTCACCTAGTGCAG,39200 fluorescence intensity (a.u.)
19,GGAATGTTTGGAAGGTGGAATTTTAAGCTTCAAAATTTCCCGGAGTCACCTAGTGCAG,23400 fluorescence intensity (a.u.)
20,CATGGATGATGATGATGTGTATCTTCCGTTGAATACTGCACGGAGTCACCTAGTGCAG,5850 fluorescence intensity (a.u.)
21,CTCTCCTCCACATCATCACTCAATCCAATGTGGCATTCTTCGGAGTCACCTAGTGCAG,13000 fluorescence intensity (a.u.)

# 2 entries from above, set out differently:
row | Sequence | binding signal
16 | TTGAGTGTAGGCAACTGATGATCTGTCAGAACGTAGTCTCCGGAGTCACCTAGTGCAG | 4350 fluorescence intensity (a.u.)
18 | GAGGGTTCTTGATGCGTGACCTGATGCGGGAGGCGTATTGCGGAGTCACCTAGTGCAG | 39200 fluorescence intensity (a.u.)

# Continued:

row,Sequence,binding signal
1,AGGAAGTACTCAAACCATGACGACAGCCAAAACACGTAAGCGGAGTCACCTAGTGCAG,7640 fluorescence intensity (a.u.)
2,ACACTCGCTATGTTTGCTACGGCATGCGTAAGAAGTCATGCGGAGTCACCTAGTGCAG,3510 fluorescence intensity (a.u.)
3,ACCATCACATGTCACCACCACTCATGGTCTCATCTTTTCGCGGAGTCACCTAGTGCAG,4610 fluorescence intensity (a.u.)
4,ATTTCTTTCAACTTCCCAACTTCTCCACCACCTAAACACACGGAGTCACCTAGTGCAG,32100 fluorescence intensity (a.u.)
5,GTGATTCGATTCCTTGCCGCGCCAAATCTTGGTTTGAGATCGGAGTCACCTAGTGCAG,24500 fluorescence intensity (a.u.)
6,ACTGTGGTTTCTAGTGGGTTTTATTATTTTATAATTTGTACGGAGTCACCTAGTGCAG,16600 fluorescence intensity (a.u.)
7,AGATGCCGGGAGACGTCACGTGATGTCACGCGCGGTCCACCGGAGTCACCTAGTGCAG,11400 fluorescence intensity (a.u.)
8,CGCTTGGCGCCGAGCCCTCCACGTCGCCCGCTCGTCTCTTCGGAGTCACCTAGTGCAG,6140 fluorescence intensity (a.u.)
9,CTGGCCTTGCTCCCTCCCATGACGTACCTTCTCCTTCCTCCGGAGTCACCTAGTGCAG,5140 fluorescence intensity (a.u.)
10,GCGCTTCCGTTCTGAGTCACTGACGAGGTGGGCCCTTAGGCGGAGTCACCTAGTGCAG,8860 fluorescence intensity (a.u.)
11,AACTGAAGTGTACCCAAATCTTGATCCAAGTATTGGTACTCGGAGTCACCTAGTGCAG,15800 fluorescence intensity (a.u.)
12,AAAATTATATTTCAAATAACTCTGCAATTACACGCGTTAACGGAGTCACCTAGTGCAG,3210 fluorescence intensity (a.u.)
13,AAATATATAGTGCCAATTATTGTATATGTGGCAAATAAAGCGGAGTCACCTAGTGCAG,25900 fluorescence intensity (a.u.)
14,GTAGTGTGAGTTGTGGTAAGCAAGAGATAGGGATAAGGGGCGGAGTCACCTAGTGCAG,4290 fluorescence intensity (a.u.)
15,AGCCGCGCGCGCTCCAGTTCCACTTCCAACGACACGTCCCCGGAGTCACCTAGTGCAG,3730 fluorescence intensity (a.u.)
16,TTCATACAACACATATATACAACTTCACAAAATCTTAAGTCGGAGTCACCTAGTGCAG,3160 fluorescence intensity (a.u.)
17,TTTAGCAATGCACGTGGACAAAGATATGTCCAAGTTCATACGGAGTCACCTAGTGCAG,5680 fluorescence intensity (a.u.)
18,CTTTCTCCGTCCGTCCATTGTCACTTGCATCATCGTCGTACGGAGTCACCTAGTGCAG,3980 fluorescence intensity (a.u.)
19,GCCCACCCGCCCGGACACGTGGACGGTCACGGTGGGCCGTCGGAGTCACCTAGTGCAG,9700 fluorescence intensity (a.u.)
20,CTTAACGTGACGTAGCAGGTTTATCACCAACTATTGCACTCGGAGTCACCTAGTGCAG,11100 fluorescence intensity (a.u.)
21,ACTGTGCCATGATTAGATTAGATGCGTGTCCAGATTGCTGCGGAGTCACCTAGTGCAG,4920 fluorescence intensity (a.u.)
